# Assay results: PubChem BioAssay AID258 (DTP/NCI, 2004)
# The list shows only some results of the screen, not a fair sample: it is rich in T/C values a quarter to a half above the control, in often repeated tests (any T/C) and in doses without a T/C. Other doses and runs of a compound stand elsewhere. T/C: endpoint of the treated group in % of that of the vehicle group. Some doses have a count of surviving animals in place of a T/C: the source holds a T/C of zero for them, seemingly a mark for toxic or unscored doses. Some doses without a T/C left all or most animals alive at the check, yet need not have been tolerated: survival well below the control is almost never listed, so the zero probably covers shortened survival too. Counts of survivors are from the toxicity check (mostly the fifth day) where no day follows; animals may have died later. Schedule codes are those of the source, read here as Q, the interval in days (D) or hours (H), X, the number of doses. Some schedules carry Z or #; the key to these is not given. Some entries were tested several times; the results are listed from low to high. Where survival is the endpoint, this PubChem deposit counts one and a half times the control or more as active, and values a quarter to a half above the control carry no call in these data; other NCI protocols may use other cut-offs. Some T/C values are followed by the survivors on the day toxicity was checked, most often the fifth; where none is given, no animal had died by that day.
# Tested on: CD2F1 mice, L1210 leukemia sc, survival T/C
# Assay: NCI In Vivo Anticancer Drug Screen. Data for tumor model L1210 Leukemia (subcutaneous) in CD2F1 (CDF1) mice
# Details: T/C endpoint: median survival time, higher T/C = longer survival
# Procedure: The antitumor activity of compounds was measured in mice bearing transplantable tumors. Survival or tumor size were measured and the results are expressed as the measurement made in the treated group (T) divided by the measurement made in the vehicle treated control group (C). The tumor model used in this assay is L1210 Leukemia (subcutaneous) in CD2F1 (CDF1) mice
smiles,measurement,setting,value
Cc1cc(NCCCCCCCNc2cc(C)nc3cc(N)ccc23)c2ccc(N)cc2n1,T/C,"dose: 6.25 mg/kg/injection, schedule: Q01DX009 (ip), vehicle: water",132 % of control
same,survivor count,"dose: 12.5 mg/kg/injection, schedule: Q01DX009 (ip), vehicle: water",3 of 6
same,survivor count,"dose: 25.0 mg/kg/injection, schedule: Q01DX009 (ip), vehicle: water",2 of 6 and 3 of 6
CCOC(C)C(/C=N/NC(N)=S)=NNC(N)=S (stereo not given),survivor count,"dose: 500.0 mg/kg/injection, schedule: Q01DX Z (sc), vehicle: carboxymethylcellulose (CMC)",8 of 8
COC(=O)C1(F)C(=O)NC(=O)NC1OC (stereo not given),T/C,"dose: 72.0 mg/kg/injection, schedule: Q01DX009 (ip), vehicle: Klucel (hydroxypropylcellulose) (HPC)",143 % of control
same,T/C,"dose: 200.0 mg/kg/injection, schedule: Q01DX009 (ip), vehicle: Klucel (hydroxypropylcellulose) (HPC)",129 % of control
CC[C@]1(O)C[C@H]2CN(CCc3c([nH]c4ccccc34)[C@@](C(=O)OC)(c3cc4c(cc3OC)N(C=O)[C@H]3[C@@](O)(C(=O)OC)[C@H](OC(C)=O)[C@]5(CC)C=CCN6CC[C@]43[C@@H]65)C2)C1,survivor count,"dose: 0.25 mg/kg/injection, schedule: Q01DX009 (sc), vehicle: saline",2 of 10
same,survivor count,"dose: 0.5 mg/kg/injection, schedule: Q01DX009 (sc), vehicle: saline",2 of 10
same,survivor count,"dose: 1.0 mg/kg/injection, schedule: Q01DX009 (sc), vehicle: saline",4 of 10
same,survivor count,"dose: 2.0 mg/kg/injection, schedule: Q01DX009 (sc), vehicle: saline",3 of 10
same,T/C,"dose: 2.5 mg/kg/injection, schedule: Q01DX001 (sc), vehicle: water",130 % of control [7 of 10 alive]
same,survivor count,"dose: 4.0 mg/kg/injection, schedule: Q01DX009 (sc), vehicle: saline",0 of 10
same,T/C,"dose: 5.0 mg/kg/injection, schedule: Q01DX001 (iv), vehicle: water",130 % of control [8 of 10 alive]
same,survivor count,"dose: 5.0 mg/kg/injection, schedule: Q01DX001 (sc), vehicle: water",6 of 10
same,survivor count,"dose: 10.0 mg/kg/injection, schedule: Q01DX001 (iv), vehicle: water",4 of 10
same,survivor count,"dose: 10.0 mg/kg/injection, schedule: Q01DX001 (sc), vehicle: water",6 of 10
same,survivor count,"dose: 1000.0 micrograms/kg/injection, schedule: Q01DX009 (ip), vehicle: saline",9 of 10
same,survivor count,"dose: 1000.0 micrograms/kg/injection, schedule: Q01DX009 (sc), vehicle: saline",9 of 10
O=C(Nc1cccnc1)c1ccc([N+](=O)[O-])s1,T/C,"dose: 200.0 mg/kg/injection, schedule: Q01DX005 (ip), vehicle: saline",137 % of control
same,survivor count,"dose: 400.0 mg/kg/injection, schedule: Q01DX005 (ip), vehicle: saline",6 of 6
